Results published in patent US8546421B1, “Oncogenic-RAS-signal dependent lethal compounds” (The Trustees of Columbia University in the City of New York, priority 2007, dated 2013).
For at least one compound, name, drawing or mass did not settle the structure.

How the values were obtained:
[1] = system: BJ-TERT/LT/ST/RAS^V12 cells; test: Counter screening with iron chelators; type: cell-based, human; conditions: DFOM and three additional iron-binding compounds; 24 hours
Procedure: Cells were treated with iron chelators by transferring 4 μL of 1 mM deferoxamine mesylate (Calbiochem, cat.#252750), 500 μM compound 1a (Chembridge, cat.#5175092), 1 mM compound 2 (Ryan Scientific, cat.#LT01784723), or 100 μM compound 311 (Chembridge, cat.#5135701) in growth media to the assay plate. Then, 4 μL was transferred from the ‘10× lethal plate’ (described in ‘counter screening with biologically active compounds’) to the assay plate in order to induce cell death. Assay plates were incubated for 24 hours and alamar blue was added to the plates at a final concentration of 10%.

[2] = system: VDAC3 in HT1080 cells; test: Drug sensitivity after shRNA knockdown of VDAC3; type: cell-based, human; conditions: shRNAs targeting VDAC3, alamar blue
Procedure: (§1) On day one, 3×10^5 Calu-1 cells or 2×10^5 HT1080 cells were seeded in 10-cm dishes; on day 2, frozen virus stock was thawed at 37° C., hexadimethrine bromide (polybrene) (Sigma, cat.#H9268) was added to the virus solution at a final concentration of 8 μg/mL and growth media from cell culture was replaced with the virus/polybrene mixture. The culture was returned to the tissue culture incubator for 2 hours, with rocking of the dishes every 30 min in order to prevent drying. After 2 h, 10 mL growth medium was added, the culture was incubated for 2 days, and cells stably expressing shRNA were selected by adding puromycin (Sigma, cat.#P9620) at a final concentration of 1.5 μg/mL.
(§2) On the day of experiment, assay plates were prepared by seeding 3,000 HT1080, HT1080-pLKO, HT1080-TfR1 KD, Calu-1, Calu-1-pLKO, or Calu-1-509 cells per well in 36 μL of growth media to black, clear bottom 384-well plates. Also, assay plates were prepared by seeding 1,500 shRNA infected HT1080 or Calu-1 cells per well. Cells in assay plates were treated with each lethal compound in a 2-fold dilution series by transferring 4 μL solution from a 10× lethal plate of Erastin, Compound 3, Compound 27, or Compound 36. […] Percent growth inhibition (% GI) was calculated using fluorescence intensity values.

[3] = system: HT1080-TfR1KD cells; test: Drug sensitivity after shRNA knockdown of TfR1; type: cell-based, human; conditions: alamar blue
Procedure: as §1, §2

[4] = system: HT1080 cells; test: Alamar blue assay with bioactive suppressors in HT1080; type: cell-based, human; conditions: 150 μM DFOM, 10 μM U0126, 50 μM SU6656, or 100 μM Vitamin E
Procedure: as §2

[5] = system: BJ-TERT/LT/ST/RAS^V12 cells expressing shRNAs targeting TfR1; test: Drug sensitivity after TfR1 shRNA in BJ tumor cells; conditions: clone 658 and 659 vs clone 660 and non-targeting shRNA

CCOc1ccccc1-n1c(C(C)N2CCN(C(=O)COc3ccc(Cl)cc3)CC2)nc2ccccc2c1=O (centres unmarked) [Erastin, reference compound]
effect of iron chelators on compound activity / induced cell death [1]: significantly inhibited | effect of VDAC3 knockdown on compound-induced cell death [2]: suppressed | sensitivity of HT1080-TfR1KD cells compared with parental HT1080 [3]: decreased sensitivity | treatments that inhibit compound-induced cell death in HT1080 cells [4]: iron chelators, MEK inhibitors or antioxidants inhibited | effectiveness in TfR1 shRNA expressing cells [5]: less effective
